Data from PubChem BioAssay AID248 (DTP/NCI, 2004).
The list shows only some results of the screen, not a fair sample: it gathers tests that were run many times, whatever their T/C, doses with no T/C, and many T/C values between a quarter and a half above the control. Further doses and runs are listed elsewhere. T/C: endpoint of the treated group in % of that of the vehicle group. Some doses have a count of surviving animals in place of a T/C: the source files T/C as zero there, which appears to mark a toxic dose or a test without result, not a measured value. Some doses without a T/C left all or most animals alive at the check, yet need not have been tolerated: survival well below the control is almost never listed, so the zero probably covers shortened survival too. Survivors were counted at the toxicity check, usually on the fifth day, unless a day is given; later deaths do not show. Schedule codes are those of the source, read here as Q, the interval in days (D) or hours (H), X, the number of doses. Some doses were run more than once; the values are given in rising order. Some schedule codes hold Z or #, which are not explained here. Where survival is the endpoint, this PubChem deposit counts one and a half times the control or more as active, and values a quarter to a half above the control carry no call in these data; other NCI protocols may use other cut-offs. Some T/C values carry the count of animals alive at the toxicity check (mostly the fifth day); where none is given, no animal had died by that day. Signs of the kind (2×) stand for listed records that agree.

Tested on: L1210 leukemia ip in BDF1 mice, survival T/C
Assay: NCI In Vivo Anticancer Drug Screen. Data for tumor model L1210 Leukemia (intraperitoneal) in B6D2F1 (BDF1) mice
Conditions: T/C endpoint: mean survival time, higher T/C = longer survival
[1] = dose: 160.0 mg/kg/injection, schedule: Q01DX005 (ip), vehicle: other

S=c1nc[nH]c2nc[nH]c12
T/C (dose: 90.0 mg/kg/injection, schedule: Q08DX002 (ip), vehicle: saline): 139 % of control | T/C (dose: 96.0 mg/kg/injection, schedule: Q## X032 (ip), vehicle: alkali diluted with saline): 140 and 146 % of control | T/C (dose: 100.0 mg/kg/injection, schedule: Q01DX017 (ip), vehicle: other): 131 % of control [7 of 8 alive] | T/C (dose: 100.0 mg/kg/injection, schedule: Q01DX Z (ip), vehicle: other): 141 % of control | T/C (dose: 100.0 mg/kg/injection, schedule: Q04DX003 (ip), vehicle: saline with Tween-80): 148 % of control | T/C (dose: 100.0 mg/kg/injection, schedule: Q12HX012 (ip), vehicle: alkali diluted with saline): 148 % of control | T/C (dose: 101.0 mg/kg/injection, schedule: Q01DX015 (ip), vehicle: other): 143 % of control | T/C (dose: 108.0 mg/kg/injection, schedule: Q01DX009 (ip), vehicle: other): 143 % of control | T/C (dose: 114.0 mg/kg/injection, schedule: Q01DX009 (ip), vehicle: alkali diluted with saline): 149 % of control [2 of 2 alive] | T/C (dose: 114.75 mg/kg/injection, schedule: Q02DX010 (ip), vehicle: carboxymethylcellulose (CMC)): 98, 105, 115, 121, 127 % of control | T/C (dose: 120.0 mg/kg/injection, schedule: Q01DX001 (ip), vehicle: saline): 133, 134, 145, 147, 150, 155, 157, 168 % of control | T/C (dose: 120.0 mg/kg/injection, schedule: Q01DX005 (ip), vehicle: alkali diluted with saline): 142 % of control | T/C (dose: 120.0 mg/kg/injection, schedule: Q01DX011 (ip), vehicle: alkali diluted with saline, evaluated on day 5): 136 % of control | T/C (dose: 120.0 mg/kg/injection, schedule: Q01DX011 (ip), vehicle: alkali diluted with saline, evaluated on day 35): 136 % of control | survivor count (dose: 120.0 mg/kg/injection, schedule: Q01DX014 (ip), vehicle: alkali diluted with saline): 0 of 6 | T/C (dose: 125.0 mg/kg/injection, schedule: Q01DX015 (ip), vehicle: alkali diluted with saline): 147 % of control | T/C (dose: 125.0 mg/kg/injection, schedule: Q04DX003 (ip), vehicle: Klucel (hydroxypropylcellulose) (HPC)): 148 % of control | T/C (dose: 128.0 mg/kg/injection, schedule: Q04DX002 (ip), vehicle: alkali diluted with saline): 125, 127, 131 % of control (2×) | T/C (dose: 129.2 mg/kg/injection, schedule: Q02DX010 (ip), vehicle: carboxymethylcellulose (CMC)): 127 % of control | T/C (dose: 134.0 mg/kg/injection, schedule: Q## X004 (ip), vehicle: alkali diluted with saline): 134 % of control | T/C (dose: 135.0 mg/kg/injection, schedule: Q01DX001 (ip), vehicle: alkali diluted with saline): 131 and 134 % of control | T/C (dose: 135.0 mg/kg/injection, schedule: Q01DX001 (ip), vehicle: carboxymethylcellulose (CMC)): 141 % of control | T/C (dose: 135.0 mg/kg/injection, schedule: Q01DX009 (ip), vehicle: alkali diluted with saline, evaluated on day 5): 144 % of control | T/C (dose: 135.0 mg/kg/injection, schedule: Q01DX009 (ip), vehicle: alkali diluted with saline, evaluated on day 45): 135 % of control | T/C (dose: 135.0 mg/kg/injection, schedule: Q01DX015 (ip), vehicle: alkali diluted with saline, evaluated on day 5): 121, 134 (2×), 142, 148, 151, 156, 163, 164 (2×), 175 % of control | T/C (dose: 135.0 mg/kg/injection, schedule: Q01DX015 (ip), vehicle: alkali diluted with saline, evaluated on day 35): 164 % of control | T/C (dose: 135.0 mg/kg/injection, schedule: Q01DX015 (ip), vehicle: alkali diluted with saline, evaluated on day 45): 121, 134, 148, 156, 164 % of control | T/C (dose: 135.0 mg/kg/injection, schedule: Q02DX008 (ip), vehicle: alkali diluted with saline): 143 % of control | T/C (dose: 135.0 mg/kg/injection, schedule: Q## X009 (ip), vehicle: alkali diluted with saline): 144 % of control | T/C (dose: 146.0 mg/kg/injection, schedule: Q01DX015 (ip), vehicle: alkali diluted with saline): 147 % of control | T/C (dose: 150.0 mg/kg/injection, schedule: Q01DX015 (ip), vehicle: alkali diluted with saline): 147 % of control | survivor count (dose: 151.0 mg/kg/injection, schedule: Q01DX015 (ip), vehicle: other): 8 of 8 | survivor count (dose: 160.0 mg/kg/injection, schedule: Q01DX005 (ip), vehicle: alkali diluted with water): 5 of 6 and 6 of 6 | T/C [1]: 90 [5 of 6 alive], 93, 97, 102, 103 (2×), 108, 108 [4 of 6 alive], 139 [5 of 6 alive], 146 % of control | survivor count [1]: 2 of 6, 5 of 6, 3 of 3 | T/C (dose: 160.0 mg/kg/injection, schedule: Q01DX009 (oral), vehicle: saline with Tween-80): 128 and 140 % of control | survivor count (dose: 160.0 mg/kg/injection, schedule: Q01DX Z (ip), vehicle: carboxymethylcellulose (CMC)): 6 of 6
